# In the supplement of paper PMC12067093, “Discovery and optimisation of a covalent ligand for TRIM25 and its application to targeted protein ubiquitination” (Chemical Science, 2025):
# Amino acid sequences for entries named in this document (tags omitted). A change or cut given only in a name is not applied to a line headed by its entry.
# UniProt O15553: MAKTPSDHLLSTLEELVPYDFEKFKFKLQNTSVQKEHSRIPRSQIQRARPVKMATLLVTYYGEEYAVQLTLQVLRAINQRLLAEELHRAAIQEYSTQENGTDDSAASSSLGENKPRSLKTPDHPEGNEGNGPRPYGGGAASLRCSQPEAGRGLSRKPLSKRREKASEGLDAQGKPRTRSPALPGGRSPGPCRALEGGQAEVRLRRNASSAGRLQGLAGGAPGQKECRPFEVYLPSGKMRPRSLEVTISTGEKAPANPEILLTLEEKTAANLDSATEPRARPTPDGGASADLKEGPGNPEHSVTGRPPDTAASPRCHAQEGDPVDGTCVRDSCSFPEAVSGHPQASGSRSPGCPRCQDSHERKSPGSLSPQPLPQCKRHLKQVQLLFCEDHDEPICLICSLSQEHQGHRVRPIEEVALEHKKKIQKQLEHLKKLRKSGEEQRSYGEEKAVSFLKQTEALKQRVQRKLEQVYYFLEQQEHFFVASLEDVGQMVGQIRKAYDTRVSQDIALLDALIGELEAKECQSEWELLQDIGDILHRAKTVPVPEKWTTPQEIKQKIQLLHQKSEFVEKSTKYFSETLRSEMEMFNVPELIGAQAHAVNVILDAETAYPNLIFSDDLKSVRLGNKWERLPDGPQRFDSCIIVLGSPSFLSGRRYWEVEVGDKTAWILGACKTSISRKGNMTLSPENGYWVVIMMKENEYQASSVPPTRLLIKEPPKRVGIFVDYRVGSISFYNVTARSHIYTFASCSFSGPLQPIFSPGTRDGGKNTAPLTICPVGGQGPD
# UniProt P08582: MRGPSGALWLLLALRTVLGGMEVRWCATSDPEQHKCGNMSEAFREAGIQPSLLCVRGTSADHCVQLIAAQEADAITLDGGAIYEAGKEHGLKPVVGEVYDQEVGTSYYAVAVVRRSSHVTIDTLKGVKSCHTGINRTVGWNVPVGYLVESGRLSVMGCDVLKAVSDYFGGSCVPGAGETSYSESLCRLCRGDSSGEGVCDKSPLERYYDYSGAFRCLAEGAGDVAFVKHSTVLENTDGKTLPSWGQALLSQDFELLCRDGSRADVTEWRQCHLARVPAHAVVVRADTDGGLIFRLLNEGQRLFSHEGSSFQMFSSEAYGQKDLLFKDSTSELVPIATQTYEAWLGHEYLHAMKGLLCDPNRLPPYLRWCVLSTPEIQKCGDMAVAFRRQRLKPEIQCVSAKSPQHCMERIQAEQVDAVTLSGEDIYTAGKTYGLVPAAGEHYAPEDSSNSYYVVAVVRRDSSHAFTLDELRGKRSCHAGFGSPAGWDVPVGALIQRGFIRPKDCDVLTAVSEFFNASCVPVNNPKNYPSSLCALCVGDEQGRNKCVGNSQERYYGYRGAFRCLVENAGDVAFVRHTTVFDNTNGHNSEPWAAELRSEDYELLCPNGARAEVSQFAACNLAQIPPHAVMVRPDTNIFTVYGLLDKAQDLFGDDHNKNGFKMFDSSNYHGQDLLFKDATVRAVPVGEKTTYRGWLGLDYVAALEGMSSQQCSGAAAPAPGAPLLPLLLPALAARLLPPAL
# UniProt Q9Y316: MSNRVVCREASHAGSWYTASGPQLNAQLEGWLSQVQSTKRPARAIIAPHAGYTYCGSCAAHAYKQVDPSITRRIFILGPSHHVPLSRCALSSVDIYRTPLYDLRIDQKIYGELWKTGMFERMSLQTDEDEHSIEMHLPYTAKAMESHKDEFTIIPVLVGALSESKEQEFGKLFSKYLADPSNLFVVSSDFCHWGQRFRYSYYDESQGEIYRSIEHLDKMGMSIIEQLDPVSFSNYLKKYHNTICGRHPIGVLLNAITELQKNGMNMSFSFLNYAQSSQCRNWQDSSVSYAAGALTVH
# UniProt P33992: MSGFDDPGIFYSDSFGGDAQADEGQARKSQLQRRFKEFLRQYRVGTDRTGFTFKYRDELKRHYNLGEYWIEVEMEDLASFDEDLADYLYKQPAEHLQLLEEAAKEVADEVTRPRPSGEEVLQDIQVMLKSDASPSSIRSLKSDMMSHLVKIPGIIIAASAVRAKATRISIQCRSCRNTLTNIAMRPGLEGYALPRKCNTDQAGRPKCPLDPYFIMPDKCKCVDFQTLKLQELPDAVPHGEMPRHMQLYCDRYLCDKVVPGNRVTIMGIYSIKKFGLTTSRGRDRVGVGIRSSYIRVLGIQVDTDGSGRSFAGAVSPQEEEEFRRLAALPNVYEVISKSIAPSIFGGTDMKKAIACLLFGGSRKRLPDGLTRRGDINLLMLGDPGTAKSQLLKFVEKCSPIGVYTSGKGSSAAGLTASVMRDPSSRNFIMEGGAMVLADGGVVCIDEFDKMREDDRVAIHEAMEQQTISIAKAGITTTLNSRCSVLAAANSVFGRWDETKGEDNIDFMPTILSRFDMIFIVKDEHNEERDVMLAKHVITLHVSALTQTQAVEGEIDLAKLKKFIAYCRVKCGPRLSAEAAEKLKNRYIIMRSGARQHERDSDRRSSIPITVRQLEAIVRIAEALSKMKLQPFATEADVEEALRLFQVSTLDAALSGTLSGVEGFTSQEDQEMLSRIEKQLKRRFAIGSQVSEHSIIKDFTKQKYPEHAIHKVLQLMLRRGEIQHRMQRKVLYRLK
# UniProt Q7L2J0: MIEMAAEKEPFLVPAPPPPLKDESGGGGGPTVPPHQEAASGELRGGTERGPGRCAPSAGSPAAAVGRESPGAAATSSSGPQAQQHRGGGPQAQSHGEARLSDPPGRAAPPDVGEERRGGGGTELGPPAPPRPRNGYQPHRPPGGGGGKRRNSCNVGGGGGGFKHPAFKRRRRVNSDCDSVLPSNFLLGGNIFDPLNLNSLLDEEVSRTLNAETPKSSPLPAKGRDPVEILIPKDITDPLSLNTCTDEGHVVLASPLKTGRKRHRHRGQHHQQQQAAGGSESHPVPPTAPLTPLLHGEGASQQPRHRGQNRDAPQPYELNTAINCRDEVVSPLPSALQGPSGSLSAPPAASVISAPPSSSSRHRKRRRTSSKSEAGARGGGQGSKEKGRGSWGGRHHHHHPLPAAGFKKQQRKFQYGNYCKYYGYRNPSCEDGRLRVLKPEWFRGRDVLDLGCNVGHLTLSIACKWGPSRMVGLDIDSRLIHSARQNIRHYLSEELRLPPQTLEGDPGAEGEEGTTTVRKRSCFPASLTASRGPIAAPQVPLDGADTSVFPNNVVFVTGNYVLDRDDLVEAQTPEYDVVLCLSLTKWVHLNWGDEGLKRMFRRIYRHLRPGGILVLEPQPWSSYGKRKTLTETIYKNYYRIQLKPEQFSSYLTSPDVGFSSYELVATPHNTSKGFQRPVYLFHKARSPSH
# UniProt Q8N6R0: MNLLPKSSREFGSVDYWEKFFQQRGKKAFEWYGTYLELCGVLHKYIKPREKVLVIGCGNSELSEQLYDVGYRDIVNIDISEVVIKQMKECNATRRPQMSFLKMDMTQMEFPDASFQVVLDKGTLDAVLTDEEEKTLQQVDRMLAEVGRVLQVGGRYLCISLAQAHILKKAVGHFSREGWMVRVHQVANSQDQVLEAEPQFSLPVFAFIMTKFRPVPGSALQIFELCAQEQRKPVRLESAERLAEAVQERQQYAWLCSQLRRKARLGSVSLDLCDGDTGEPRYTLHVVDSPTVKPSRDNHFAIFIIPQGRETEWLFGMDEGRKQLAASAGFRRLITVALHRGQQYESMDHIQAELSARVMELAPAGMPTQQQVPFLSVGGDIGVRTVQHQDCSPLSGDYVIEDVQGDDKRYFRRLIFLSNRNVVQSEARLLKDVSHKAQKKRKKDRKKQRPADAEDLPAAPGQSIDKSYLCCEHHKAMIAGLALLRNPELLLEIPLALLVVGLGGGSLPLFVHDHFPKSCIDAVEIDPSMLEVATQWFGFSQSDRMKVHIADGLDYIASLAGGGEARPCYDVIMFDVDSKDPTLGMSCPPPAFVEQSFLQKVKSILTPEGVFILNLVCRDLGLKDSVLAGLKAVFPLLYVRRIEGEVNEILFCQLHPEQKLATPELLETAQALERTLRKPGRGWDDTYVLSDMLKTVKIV
# UniProt P23368: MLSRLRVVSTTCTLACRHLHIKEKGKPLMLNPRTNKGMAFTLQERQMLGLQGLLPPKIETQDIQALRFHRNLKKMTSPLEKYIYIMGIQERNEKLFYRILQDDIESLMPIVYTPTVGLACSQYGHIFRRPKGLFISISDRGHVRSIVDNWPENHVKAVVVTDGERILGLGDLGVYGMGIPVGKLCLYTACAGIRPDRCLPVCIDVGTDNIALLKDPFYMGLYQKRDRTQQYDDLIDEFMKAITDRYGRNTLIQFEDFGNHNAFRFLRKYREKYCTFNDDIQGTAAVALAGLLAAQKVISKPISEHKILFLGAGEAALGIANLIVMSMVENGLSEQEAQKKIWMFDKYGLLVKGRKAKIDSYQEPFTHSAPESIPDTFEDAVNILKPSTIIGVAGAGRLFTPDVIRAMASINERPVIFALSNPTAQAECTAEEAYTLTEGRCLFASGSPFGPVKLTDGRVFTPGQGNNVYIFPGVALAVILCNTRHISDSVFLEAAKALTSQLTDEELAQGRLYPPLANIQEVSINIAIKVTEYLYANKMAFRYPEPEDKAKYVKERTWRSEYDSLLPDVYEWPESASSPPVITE
# UniProt P40926: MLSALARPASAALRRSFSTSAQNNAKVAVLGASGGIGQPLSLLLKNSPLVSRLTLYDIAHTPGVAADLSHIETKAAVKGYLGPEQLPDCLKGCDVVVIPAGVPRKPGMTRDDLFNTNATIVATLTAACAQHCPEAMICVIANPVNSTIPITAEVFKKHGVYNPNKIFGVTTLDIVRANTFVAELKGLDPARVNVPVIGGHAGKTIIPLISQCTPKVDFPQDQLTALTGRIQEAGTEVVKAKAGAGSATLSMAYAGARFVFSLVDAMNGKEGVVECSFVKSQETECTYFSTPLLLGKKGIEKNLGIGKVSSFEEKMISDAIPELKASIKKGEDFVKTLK
# UniProt Q10469: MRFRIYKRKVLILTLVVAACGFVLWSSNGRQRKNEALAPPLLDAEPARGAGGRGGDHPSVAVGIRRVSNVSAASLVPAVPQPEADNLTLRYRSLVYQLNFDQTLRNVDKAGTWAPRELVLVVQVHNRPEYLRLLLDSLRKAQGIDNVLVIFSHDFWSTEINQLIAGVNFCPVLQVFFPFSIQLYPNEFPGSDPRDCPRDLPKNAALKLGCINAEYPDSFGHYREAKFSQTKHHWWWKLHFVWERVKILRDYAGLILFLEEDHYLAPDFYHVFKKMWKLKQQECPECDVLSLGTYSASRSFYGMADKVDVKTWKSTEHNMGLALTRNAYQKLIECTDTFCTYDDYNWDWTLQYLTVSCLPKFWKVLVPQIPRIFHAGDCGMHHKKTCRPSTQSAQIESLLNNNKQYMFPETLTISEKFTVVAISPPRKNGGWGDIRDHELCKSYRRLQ
# UniProt Q6UX53: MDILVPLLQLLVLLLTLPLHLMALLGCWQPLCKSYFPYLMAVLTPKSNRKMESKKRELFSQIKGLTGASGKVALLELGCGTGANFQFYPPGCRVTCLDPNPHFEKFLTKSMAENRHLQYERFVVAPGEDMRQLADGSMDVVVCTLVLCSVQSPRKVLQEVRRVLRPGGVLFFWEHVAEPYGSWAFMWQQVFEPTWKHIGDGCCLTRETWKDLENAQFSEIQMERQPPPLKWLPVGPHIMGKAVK
# UniProt P33993, whole entry, looked up: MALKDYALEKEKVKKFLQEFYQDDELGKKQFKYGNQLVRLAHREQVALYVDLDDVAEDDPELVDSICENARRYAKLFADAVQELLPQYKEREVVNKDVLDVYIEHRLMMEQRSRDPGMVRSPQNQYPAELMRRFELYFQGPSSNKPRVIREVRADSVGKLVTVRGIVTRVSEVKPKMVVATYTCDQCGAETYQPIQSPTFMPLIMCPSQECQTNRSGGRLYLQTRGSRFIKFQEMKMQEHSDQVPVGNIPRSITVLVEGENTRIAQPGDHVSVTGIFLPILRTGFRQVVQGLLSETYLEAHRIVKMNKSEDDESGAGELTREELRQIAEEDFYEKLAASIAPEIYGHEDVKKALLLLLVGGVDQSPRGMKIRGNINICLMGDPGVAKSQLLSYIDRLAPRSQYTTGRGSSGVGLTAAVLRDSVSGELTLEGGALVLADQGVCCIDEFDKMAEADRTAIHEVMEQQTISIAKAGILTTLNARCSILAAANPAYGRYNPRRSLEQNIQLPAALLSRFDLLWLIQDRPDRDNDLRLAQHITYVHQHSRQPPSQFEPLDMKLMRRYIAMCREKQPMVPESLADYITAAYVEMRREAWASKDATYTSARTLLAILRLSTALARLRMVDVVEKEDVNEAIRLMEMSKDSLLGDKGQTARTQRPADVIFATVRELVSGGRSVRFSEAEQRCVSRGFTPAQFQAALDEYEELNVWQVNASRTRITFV
# UniProt Q6P2C8: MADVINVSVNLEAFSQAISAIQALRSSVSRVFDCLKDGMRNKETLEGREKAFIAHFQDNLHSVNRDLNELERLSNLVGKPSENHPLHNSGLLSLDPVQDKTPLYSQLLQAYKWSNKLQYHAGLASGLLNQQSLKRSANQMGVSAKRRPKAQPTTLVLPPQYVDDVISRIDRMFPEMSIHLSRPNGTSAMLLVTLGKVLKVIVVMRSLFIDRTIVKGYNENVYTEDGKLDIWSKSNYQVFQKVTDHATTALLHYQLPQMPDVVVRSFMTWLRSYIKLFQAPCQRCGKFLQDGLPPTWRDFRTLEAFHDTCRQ
# This is one part of the list.
# Compound: Cc1cc(ccc1-c1ccccc1)C(=O)N1CCCN(CC1)C(=O)CCl [compound 10]
# Test: probe-labelled cysteine peptide fold change vs DMSO (competition) (log2 fold change); higher = less target engagement (more negative = stronger competition)
# Settings: THP-1, incubation time: 4 h
# 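Further: competitive profiling in live THP-1 cells: cysteine peptides tagged with an iodoacetamide desthiobiotin (IA-DTB) probe, intensity after compound treatment relative to DMSO-treated cells.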
Target,probe-labelled cysteine peptide fold change (10 µM),probe-labelled cysteine peptide fold change (50 µM)
MCM2_P49736_624_CTVIAAANPIGGR (UniProt P49736),0.12,0.0803
MFN2_O95140_281_CTSFLVDELGVVDR (UniProt O95140),0.0211,-0.0552
MEFV_O15553_315_CHAQEGDPVDGTCVR (UniProt O15553),-0.33,0.163
MELTF_P08582_397_LKPEIQCVSAK (UniProt P08582),-0.326,0.0466
MEMO1_Q9Y316_244_KYHNTICGR (UniProt Q9Y316),-0.128,0.215
MCM5_P33992_249_HMQLYCDR (UniProt P33992),0.112,-0.0978
MCTS1_Q9ULC4_14_ENVSNCIQLK (UniProt Q9ULC4),0.0295,-0.216
MCM3_P25205_263_TVLIACNVK (UniProt P25205),0.0227,0.0385
MEFV_O15553_773_NTAPLTICPVGGQGPD (UniProt O15553),-0.216,0.0511
MEPCE_Q7L2J0_452_DVLDLGCNVGHLTLSIACK (UniProt Q7L2J0),0.0401,0.348
MCM3_P25205_319_AILCLLLGGVER (UniProt P25205),-0.0228,0.0412
MFN1_Q8IWA4_513_LCSDFQEDIVFR (UniProt Q8IWA4),-0.0991,0.451
MCM5_P33992_355_AIACLLFGGSRK (UniProt P33992),-0.159,-0.759
METTL13_Q8N6R0_652_IEGEVNEILFCQLHPEQK (UniProt Q8N6R0),0.154,-0.0266
METTL26_Q96S19_162_CRNPEWGLR (UniProt Q96S19),0.105,-0.15
MCM3_P25205_446_CSVLAAANPVYGR (UniProt P25205),-0.148,0.0959
MEPCE_Q7L2J0_452+463_GRDVLDLGCNVGHLTLSIACK (UniProt Q7L2J0),-0.0644,0.185
MCM3_P25205_126_TLTSCFLSCVVCVEGIVTK (UniProt P25205),-0.0625,-0.708
METAP2_P50579_416_HLLNVINENFGTLAFCR (UniProt P50579),0.0763,0.123
ME2_P23368_190_LCLYTACAGIRPDR (UniProt P23368),0.0869,0.103
MCM3_P25205_319_KAILCLLLGGVER (UniProt P25205),-0.268,-0.712
MEPCE_Q7L2J0_452_GRDVLDLGCNVGHLTLSIACK (UniProt Q7L2J0),0.0724,0.049

Target,probe-labelled cysteine peptide fold change (10 µM),probe-labelled cysteine peptide fold change (50 µM)
MEMO1_Q9Y316_244_YHNTICGR (UniProt Q9Y316),-0.13,0.286
MDH2_P40926_212_TIIPLISQCTPK (UniProt P40926),-0.0749,0.0289
MED26_O95402_598_LNILPYVCLD (UniProt O95402),-0.219,0.33
MCMBP_Q9BTE3_325_LQHINPLLPACLNK (UniProt Q9BTE3),-0.451,-1.87
MCM6_Q14566_301_LVFLACCVAPTNPR (UniProt Q14566),0.023,-0.438
MGAT2_Q10469_378_IFHAGDCGMHHK (UniProt Q10469),-0.125,-0.149
MESD_Q14696_180_CADVTLEGQVYPGK (UniProt Q14696),-0.0653,0.0953
MCM6_Q14566_242_CDFTGTLIVVPDVSK (UniProt Q14566),0.12,0.175
METTL13_Q8N6R0_39_AFEWYGTYLELCGVLHK (UniProt Q8N6R0),-0.148,0.124
METTL3_Q86U44_483_EHCLVGVK (UniProt Q86U44),0.0347,-0.115
METTL7B_Q6UX53_96_VTCLDPNPHFEK (UniProt Q6UX53),-0.0131,-0.269
MCMBP_Q9BTE3_396_FTVNLSGCPR (UniProt Q9BTE3),0.0768,-0.00862
MDN1_Q9NU22_3263_EELHQLQCEWK (UniProt Q9NU22),-0.052,0.234
MCM10_Q7L590_329_DLTQCVSLFLFGEVHK (UniProt Q7L590),0.02,0.672
MGRN1_O60291_528_AASIENVLQDSSPEHCGR (UniProt O60291),-0.518,-0.552
ME1_P48163_110_FMPIVYTPTVGLACQQYSLVFR (UniProt P48163),-0.26,0.641
MCCC2_Q9HCC0_431_MVAAVACAQVPK (UniProt Q9HCC0),-0.115,-0.0757
MCM7_P33993_482_CSILAAANPAYGR (UniProt P33993),-0.0554,-0.0325
MCM2_P49736_223_ISDMCK (UniProt P49736),-0.124,-0.178
MDN1_Q9NU22_979_FAASNPCGNIQR (UniProt Q9NU22),0.0245,0.0901
MEF2D_Q14814_41_AYELSVLCDCEIALIIFNHSNK (UniProt Q14814),0.134,0.377
MED6_O75586_45_TCNNEVVK (UniProt O75586),-0.15,0.031

Target,probe-labelled cysteine peptide fold change (10 µM),probe-labelled cysteine peptide fold change (50 µM)
ME2_P23368_441_CLFASGSPFGPVK (UniProt P23368),-0.169,-0.0582
MED24_O75448_816_LAVWCALSSYSSHK (UniProt O75448),0.0802,0.261
METAP1_P53582_255_LVQTTYECLMQAIDAVKPGVR (UniProt P53582),0.0796,0.0231
MELTF_P08582-2_256_SEEEEGECPAHEEAR (UniProt P08582),-0.0519,0.438
MCM5_P33992_355_AIACLLFGGSR (UniProt P33992),0.0253,0.126
MGAT2_Q10469_440_DHELCK (UniProt Q10469),-0.249,0.259
MDN1_Q9NU22_3308_MDRLDNLTCHLLK (UniProt Q9NU22),-0.00667,-0.264
MCM7_P33993_566_RYIAMCR (UniProt P33993),-0.0177,-0.0464
MDH2_P40926_93_GCDVVVIPAGVPR (UniProt P40926),0.161,0.0603
MCM3_P25205_148_SVHYCPATK (UniProt P25205),-0.0106,-0.143
MGST3_O14880_56_YKVEYPIMYSTDPENGHIFNCIQR (UniProt O14880),0.0464,-0.056
METAP1_P53582_255_KLVQTTYECLMQAIDAVK (UniProt P53582),0.0609,-0.253
METAP1_P53582_194+202_SCCTSVNEVICHGIPDR (UniProt P53582),0.352,-0.121
METAP2_P50579_380_GVVHDDMECSHYMK (UniProt P50579),-0.28,-0.388
MED15_Q96RN5_618_QQYLCQPLLDAVLANIR (UniProt Q96RN5),0.19,0.0836
MED23_Q9ULK4_1109_FNEFPNPAAHALHVTCVELMALAVSGK (UniProt Q9ULK4),0.00137,0.0934
MCM6_Q14566_636_MHCCDEVQPK (UniProt Q14566),0.0478,-0.487
MFSD2A_Q8NA29_531_ALQALRDEASSSGCSETDSTELASIL (UniProt Q8NA29),-0.0148,0.377
MEIOC_A2RUB1_875_CQDDRDVFALASAIK (UniProt A2RUB1),-0.168,-0.53
MCM5_P33992_397_CSPIGVYTSGK (UniProt P33992),0.0268,0.00671
MCM3AP_O60318_800_GVFCASEAEFQGYNVLLSLNK (UniProt O60318),0.186,0.139
ME2_P23368_202_CLPVCIDVGTDNIALLK (UniProt P23368),0.0494,-0.0254

Target,probe-labelled cysteine peptide fold change (10 µM),probe-labelled cysteine peptide fold change (50 µM)
MDH2_P40926_285_SQETECTYFSTPLLLGK (UniProt P40926),-0.187,0.251
MCMBP_Q9BTE3_602_CLSLSAGQTTLSR (UniProt Q9BTE3),0.28,0.0578
MED28_Q9H204_93_QTECFFLQK (UniProt Q9H204),-0.00297,-0.246
MCM6_Q14566_161_THPVHPELVSGTFLCLDCQTVIRDVEQQFK (UniProt Q14566),0.14,-0.457
MED13L_Q71F56_1919_DWSILLGECSLQTISK (UniProt Q71F56),-0.109,-0.0454
MED27_Q6P2C8_309_TLEAFHDTCRQ (UniProt Q6P2C8),-0.126,0.0423
MEN1_O00255_334_TYYRDEHIYPYMYLAGYHCR (UniProt O00255),-0.045,-0.0265
MED13L_Q71F56_1457_LGQHKPICK (UniProt Q71F56),-0.206,-0.589
MEFV_O15553_395_QVQLLFCEDHDEPICLICSLSQEHQGHR (UniProt O15553),0.0824,0.309
MED27_Q6P2C8_34_VFDCLK (UniProt Q6P2C8),0.126,-0.134
MDH2_P40926_275_EGVVECSFVK (UniProt P40926),0.0695,0.0885
METTL7B_Q6UX53_203_HIGDGCCLTR (UniProt Q6UX53),-0.0981,-0.521
METTL5_Q9NRN9_38_LLLEQYPTRPHIAACMLYTIHNTYDDIENK (UniProt Q9NRN9),0.169,-0.0108
ME3_Q16798_145_FMPIVYTPTVGLACQHYGLTFR (UniProt Q16798),-0.00527,0.758
METAP1_P53582_368_SAQFEHTLLVTDTGCEILTR (UniProt P53582),0.000927,-0.101
MFSD2A_Q8NA29_44_KQQLSVCNK (UniProt Q8NA29),-0.432,-0.586
MCM2_P49736_661_FDILCVVRDTVDPVQDEMLAR (UniProt P49736),-0.0604,-0.392
MED18_Q9BUE0_43_GLCDNMEPETFLDHEMVFLLK (UniProt Q9BUE0),0.00665,0.113
MGA_Q8IWI9_1313_SSCNEGESSSTSYMHQR (UniProt Q8IWI9),-0.00962,-0.147
MDH2_P40926_89_GYLGPEQLPDCLK (UniProt P40926),0.117,-0.0466
